The values below come from the supplement of paper PMC5662767.

Counter-ions that a name gives are not always drawn. This is one part of the list. Baselines shift from plate to plate; read single values as rough.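 Smoothened with circularly permuted GFP in its cytoplasmic tail is carried by a clonal Drosophila S2 line; fluorescence appears when Hh-driven phosphorylation opens an inhibitory loop. Per-cell signal, read by flow cytometry, was scaled to Hh-stimulated untreated cells. Hits were consistent fluorescence-shifting groups of inhibitors sharing pathway targets, not single compounds.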

In this experiment the test system is Drosophila S2 cl14 SmoIP sensor cells. Briefly: normalized SmoIP GFP fluorescence (untreated unstimulated = 0%, untreated Hh-stimulated = 100%); higher = more Smo activation sensor fluorescence. The following applies: compound concentration: 15 uM, 24 h.
Setting [1] is: stimulation: Hh conditioned medium (+Hh).
[2] abbreviates: stimulation: mock conditioned medium (-Hh).

Turning to `CC(C)(C)Cn1c(N)nc2ccc(-c3[nH]c(C(C)(C)C)nc3-c3ccc(F)cc3)nc21`, the “normalized SmoIP GFP fluorescence” value amounted to 154% under setting [1] and 78.8% under setting [2].

Regarding `C=CC(=O)Nc1cc2c(Nc3ccc(F)c(Cl)c3)ncnc2cc1OCCCN1CCOCC1` [CI-1033(Canertinib)], the “normalized SmoIP GFP fluorescence” value came out at 166% under setting [1] and 74.3% under setting [2].

For the compound `CN(C[C@@H]1COCCO1)S(=O)(=O)Nc1ccc2ccc3ncc(-c4cnn(C)c4)cc3c(=O)c2c1`, the “normalized SmoIP GFP fluorescence” value runs as follows: under setting [1], 69.6%; under setting [2], 20.9%.

Take `N=C(N)NC(=N)NCCc1ccccc1` [Phenformin-hydrochloride]: the “normalized SmoIP GFP fluorescence” value is, setting by setting: under setting [1], 135%; under setting [2], -9.04%.

With `O=C(CCCCCCNC(=O)c1cnc(N(c2ccccc2)c2ccccc2)nc1)NO` [rocilinostat-acy-1215], the “normalized SmoIP GFP fluorescence” value runs as follows: under setting [1], 181%; under setting [2], 67.5%.

Take `O=C(NCCS(=O)(=O)c1ccc(C(F)(F)F)cn1)c1ccc(Cl)cc1`: the “normalized SmoIP GFP fluorescence” value under setting [1] worked out at 127% and the “normalized SmoIP GFP fluorescence” value under setting [2] was -7.15%.

As to `Cc1cc(Cn2cnc3c2CC(C(=O)O)N(C(=O)C(c2ccccc2)c2ccccc2)C3)ccc1N(C)C` (stereo unspecified), the “normalized SmoIP GFP fluorescence” value under setting [1] is 112% and the “normalized SmoIP GFP fluorescence” value under setting [2] is -3.16%.

For the compound `CC1C(=O)OC2C(O)C34C5CC(C(C)(C)C)C36C(OC(=O)C6O)OC4(C(=O)O5)C12O` (stereo unspecified) [Ginkgolide-B], the “normalized SmoIP GFP fluorescence” value reads like this: under setting [1], 133%; under setting [2], -1.56%.

In the case of `O=C(NNc1ccccc1)c1ccncc1`, the “normalized SmoIP GFP fluorescence” value is 117% under setting [1] and -0.662% under setting [2].

In the case of `Nc1cccc2c1C(=O)N(C1CCC(=O)NC1=O)C2=O` (stereo unspecified) [Pomalidomide(CC-4047)], the “normalized SmoIP GFP fluorescence” value was found to be 148% under setting [1] and 1.89% under setting [2].

For `C=CC(=O)Nc1cccc(Oc2nc(Nc3ccc(N4CCN(C)CC4)cc3OC)ncc2Cl)c1`, the “normalized SmoIP GFP fluorescence” value was determined as 147% under setting [1] and 40.9% under setting [2].

`Cc1nccn1CC1CCc2c(c3ccccc3n2C)C1=O` (stereo unspecified) [Ondansetron-hydrochloride]: the “normalized SmoIP GFP fluorescence” value runs as follows: under setting [1], 143%; under setting [2], 4.8%.

As to `CN(C)CC(=O)Nc1ccc2[nH]c(=O)c3ccccc3c2c1`, the “normalized SmoIP GFP fluorescence” value under setting [1] was determined as 137% and the “normalized SmoIP GFP fluorescence” value under setting [2] was found to be 6.67%.

As for `CC(C)NCC(O)COc1ccc(COCCOC(C)C)cc1` (stereo unspecified) [Bisoprolol-Fumarate], the “normalized SmoIP GFP fluorescence” value was found to be 125% under setting [1] and 1.35% under setting [2].

Take `CCc1ccc(/C=C2/SC(=S)NC2=O)cc1`: the “normalized SmoIP GFP fluorescence” value was determined as 135% under setting [1] and 5.47% under setting [2].

As for `COc1ccc(-c2ccc3c(N4CCOCC4)nc(N4C[C@@H](C)O[C@@H](C)C4)nc3n2)cc1CO`, the “normalized SmoIP GFP fluorescence” value reads like this: under setting [1], 85.5%; under setting [2], 24.9%.

For the compound `CN(NC(=O)CC(=O)NN(C)C(=S)c1ccccc1)C(=S)c1ccccc1` [Elesclomol], the “normalized SmoIP GFP fluorescence” value reads like this: under setting [1], 171%; under setting [2], 21%.

For `COc1cc(OC)c(NC(=O)Nc2cc(C)on2)cc1Cl`, the “normalized SmoIP GFP fluorescence” value was 149% under setting [1] and -6.16% under setting [2].

As to `O=C(Nc1ccncc1)c1cc([N+](=O)[O-])ccc1Cl`, the “normalized SmoIP GFP fluorescence” value runs as follows: under setting [1], 129%; under setting [2], 4.39%.

Regarding `COc1cc2c(cc1OC)[C@@H]1Cc3ccc(OC)c(OC)c3CN1CC2` [rotundine], the “normalized SmoIP GFP fluorescence” value runs as follows: under setting [1], 217%; under setting [2], 48.4%.

On to `CNS(=O)(=O)Cc1ccc2[nH]cc(CCN(C)C)c2c1` [Sumatriptan-succinate], for which the “normalized SmoIP GFP fluorescence” value by setting is: under setting [1], 126%; under setting [2], 7.39%.

As for `CC(C(O)c1ccc(O)cc1)N1CCC(Cc2ccccc2)CC1` (stereo unspecified) [ifenprodil-tartrate], the “normalized SmoIP GFP fluorescence” value by setting is: under setting [1], 132%; under setting [2], 9.51%.

In the case of `O=C1[C@H](Cc2ccc(O)cc2)N2C(=O)CCN(C(=O)NCc3ccccc3)[C@H]2CN1Cc1cccc2ccccc12`, the “normalized SmoIP GFP fluorescence” value is 199% under setting [1] and 32.9% under setting [2].

`CC(C)C1CCC(C(=O)N[C@H](Cc2ccccc2)C(=O)O)CC1` (stereo partly specified) [Nateglinide(Starlix)]: the “normalized SmoIP GFP fluorescence” value by setting is: under setting [1], 132%; under setting [2], -15.4%.

As to `CC(C)C[C@H](NC(=O)[C@H](CCc1ccccc1)NC(=O)CN1CCOCC1)C(=O)N[C@@H](Cc1ccccc1)C(=O)N[C@@H](CC(C)C)C(=O)[C@@]1(C)CO1` [carfilzomib-pr-171], the “normalized SmoIP GFP fluorescence” value by setting is: under setting [1], 99.3%; under setting [2], 39.5%.

In the case of `CN(C)[C@@H](CCOc1cccc2ccccc12)c1ccccc1` [Dapoxetine-hydrochloride(Priligy)], the “normalized SmoIP GFP fluorescence” value runs as follows: under setting [1], 164%; under setting [2], 32.3%.

As to `C=CCc1ccc(O)c(-c2ccc(O)c(CC=C)c2)c1` [Honokiol], the “normalized SmoIP GFP fluorescence” value came out at 132% under setting [1] and 6.1% under setting [2].

As for `Cc1cc(-c2ncc(CC(=O)Nc3ccc(-c4cnccn4)cn3)cc2C)ccn1`, the “normalized SmoIP GFP fluorescence” value by setting is: under setting [1], 266%; under setting [2], 61.4%.
